Experimental findings from patent US10221420B2, “Aptamer construct” (priority 2014, dated 2019) are described below.

Where cells or extracts were used, other partners may take part. Protein sequences can lack the tags named with them.

For the data set, the target named is T1, CD133 (prominin-1) (UniProt O43490).
T1 sequence (looked up, limits assumed): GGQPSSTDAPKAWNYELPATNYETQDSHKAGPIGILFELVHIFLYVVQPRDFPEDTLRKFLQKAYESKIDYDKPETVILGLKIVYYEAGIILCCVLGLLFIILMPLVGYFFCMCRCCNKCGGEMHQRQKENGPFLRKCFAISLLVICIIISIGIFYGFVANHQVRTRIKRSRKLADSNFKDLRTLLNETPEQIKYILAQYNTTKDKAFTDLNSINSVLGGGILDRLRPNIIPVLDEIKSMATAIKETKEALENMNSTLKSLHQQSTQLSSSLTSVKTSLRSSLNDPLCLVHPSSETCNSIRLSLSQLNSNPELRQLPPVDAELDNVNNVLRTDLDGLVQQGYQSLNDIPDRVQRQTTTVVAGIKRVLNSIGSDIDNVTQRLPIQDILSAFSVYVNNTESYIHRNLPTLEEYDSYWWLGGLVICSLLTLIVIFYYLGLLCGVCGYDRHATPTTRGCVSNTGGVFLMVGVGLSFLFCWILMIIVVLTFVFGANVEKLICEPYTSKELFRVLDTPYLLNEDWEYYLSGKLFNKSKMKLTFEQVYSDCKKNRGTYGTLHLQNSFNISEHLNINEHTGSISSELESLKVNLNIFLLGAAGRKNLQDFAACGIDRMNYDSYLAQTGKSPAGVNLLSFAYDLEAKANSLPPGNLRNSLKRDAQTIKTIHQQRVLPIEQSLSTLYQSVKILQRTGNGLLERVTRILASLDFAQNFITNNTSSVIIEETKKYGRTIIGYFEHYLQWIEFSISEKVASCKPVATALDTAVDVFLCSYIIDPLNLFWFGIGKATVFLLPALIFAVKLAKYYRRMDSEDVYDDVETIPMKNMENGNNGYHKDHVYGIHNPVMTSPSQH
Nature of the data set: flow cytometry. The following applies: 2'-OMe instead of 2'-F in loop; otherwise identical sequence; doxorubicin intercalated in stem; HT29 cells per text (figure legend says HEK293), 50 mM NaCl, 2.5 mM MgCl2, on ice 1 h; protein on the cell surface; label: …. Background: A flow cytometer gives signals particle by particle.

In general, Kd refers to the equilibrium constant for the complex coming apart. High values mean a looser complex, low ones a tighter complex. Take “CGCGCGCCGCACGUAUACUAUGCGGCGCGCG [negative control aptamer-Dox conjugate]”: the dissociation constant Kd was over 1000 nM.
